No constants are given. Whether binding was seen depends on the method and setting. Binding seen in cells or lysates may run through a third protein. Some results given as binding are weak or reduced against the parent protein; the word gives no strength.

Amino acid sequences for entries named in this document (tags omitted).
UniProt Q3TKT4: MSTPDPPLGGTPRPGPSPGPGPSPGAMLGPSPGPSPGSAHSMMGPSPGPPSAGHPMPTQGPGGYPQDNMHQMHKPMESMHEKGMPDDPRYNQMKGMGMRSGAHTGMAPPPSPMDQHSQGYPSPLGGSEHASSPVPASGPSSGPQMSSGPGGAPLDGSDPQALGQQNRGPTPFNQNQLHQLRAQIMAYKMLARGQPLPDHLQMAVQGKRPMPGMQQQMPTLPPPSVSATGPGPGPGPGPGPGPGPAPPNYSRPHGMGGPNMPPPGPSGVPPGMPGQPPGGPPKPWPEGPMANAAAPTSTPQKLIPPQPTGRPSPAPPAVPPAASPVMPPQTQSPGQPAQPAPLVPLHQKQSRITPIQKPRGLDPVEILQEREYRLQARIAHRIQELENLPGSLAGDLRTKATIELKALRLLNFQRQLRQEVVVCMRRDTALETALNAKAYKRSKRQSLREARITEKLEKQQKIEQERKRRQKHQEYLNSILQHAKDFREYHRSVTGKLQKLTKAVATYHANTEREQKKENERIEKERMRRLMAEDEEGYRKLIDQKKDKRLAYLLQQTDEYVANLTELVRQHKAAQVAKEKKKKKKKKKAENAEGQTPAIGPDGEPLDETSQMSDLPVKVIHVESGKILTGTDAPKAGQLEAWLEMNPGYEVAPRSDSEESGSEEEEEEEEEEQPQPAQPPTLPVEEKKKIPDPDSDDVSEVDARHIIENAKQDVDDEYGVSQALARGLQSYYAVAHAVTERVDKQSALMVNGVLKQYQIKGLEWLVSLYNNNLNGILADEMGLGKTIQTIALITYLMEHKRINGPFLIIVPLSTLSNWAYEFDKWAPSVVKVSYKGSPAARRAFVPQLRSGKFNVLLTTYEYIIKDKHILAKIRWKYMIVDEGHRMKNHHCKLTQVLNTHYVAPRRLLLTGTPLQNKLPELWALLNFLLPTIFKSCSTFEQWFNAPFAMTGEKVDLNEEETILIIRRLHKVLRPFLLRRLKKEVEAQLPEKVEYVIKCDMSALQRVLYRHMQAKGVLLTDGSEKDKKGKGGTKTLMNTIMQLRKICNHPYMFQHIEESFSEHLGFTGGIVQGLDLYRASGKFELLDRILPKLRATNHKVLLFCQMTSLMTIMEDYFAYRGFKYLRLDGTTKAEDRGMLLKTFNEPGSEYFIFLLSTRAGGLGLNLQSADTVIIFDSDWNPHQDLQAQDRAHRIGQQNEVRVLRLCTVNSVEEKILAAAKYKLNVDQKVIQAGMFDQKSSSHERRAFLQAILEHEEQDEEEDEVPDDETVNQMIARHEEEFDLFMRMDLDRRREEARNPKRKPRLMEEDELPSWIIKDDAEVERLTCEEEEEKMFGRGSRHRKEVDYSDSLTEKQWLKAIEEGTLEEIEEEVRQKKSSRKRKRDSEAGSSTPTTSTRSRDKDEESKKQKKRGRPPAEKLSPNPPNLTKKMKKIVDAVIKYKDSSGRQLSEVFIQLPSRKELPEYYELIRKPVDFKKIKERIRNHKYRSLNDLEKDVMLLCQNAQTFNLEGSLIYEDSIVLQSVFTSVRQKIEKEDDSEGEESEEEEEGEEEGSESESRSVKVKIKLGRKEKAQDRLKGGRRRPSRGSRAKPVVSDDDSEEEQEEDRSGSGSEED
UniProt P10085: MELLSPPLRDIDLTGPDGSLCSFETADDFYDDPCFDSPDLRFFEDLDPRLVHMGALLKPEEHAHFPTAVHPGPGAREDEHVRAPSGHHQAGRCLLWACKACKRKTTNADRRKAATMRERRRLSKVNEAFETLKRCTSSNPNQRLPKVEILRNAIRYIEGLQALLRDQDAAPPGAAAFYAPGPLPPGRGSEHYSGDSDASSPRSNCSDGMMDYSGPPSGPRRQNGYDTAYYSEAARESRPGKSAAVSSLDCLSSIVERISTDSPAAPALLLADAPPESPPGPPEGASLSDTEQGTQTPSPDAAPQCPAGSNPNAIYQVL

The target in assay [1] is Brahma related gene 1 (Brg1), endogenous (mouse (endogenous in C2C12 and primary mouse myoblasts)) (UniProt Q3TKT4). Kind of assay: co-IP; lysates of 24 h differentiated primary mouse myoblasts (C57BL/6, or Brg1-deleted and expressing WT-, SA- or SE-Brg1); IP with pan-calcineurin A antibody or Brg1 antisera, protein A magnetic beads, wash with 300 mM NaCl, 0.5% NP-40, 1 mM CaCl2; Western blot.

Assay [2] addresses wild-type Brg1 (WT-Brg1) expressed in Brg1-depleted primary mouse myoblasts (UniProt Q3TKT4). Described as above.

For MyoD (from UniProt P10085 1-318), the binding result in assay [1] and in assay [2] was “binds” throughout.

(Values after PMC6751634.)
